Results taken from patent publication US12478617B2 (JANSSEN BIOTECH, INC., priority 2021, dated 2025).

assay: general procedure: Fmoc solid-phase peptide synthesis; Rink Amide MBHA; HBTU/DIEA; PyAOP/DIEA for some couplings; Oxyma/DIC; settings: whole synthesis, analytical RP-HPLC, acetate

**Q.** With “Ac-[Pen]*-N-T-[W(7-Me)]-[Lys(Ac)]-[Pen]*-Phe[4-(2-aminoethoxy)]-[2-Nal]-[THP]-E-N-[3-Pal]-Sarc-NH2 (*Pen-Pen form disulfide bond)” as the substance, how does the “final HPLC purity” value read?
**A.** The value was greater than 95%.

assay: general procedure: Fmoc solid-phase peptide synthesis; Rink Amide MBHA resin (100-200 mesh, 0.57 or […]); pre-loaded Wang resin for C-terminal acids; Rink-amide AM res; HBTU/DIEA; PyAOP/DIEA for some couplings; Oxyma/DIC; settings: oxidative folding step, TFA salt, counterion exchange to acetate

**Q.** Which oxidative folding yield does the source give for “HOC18gEPEG2PEG2-r-Pen*-N-T-7MeW-K(Ac)-Pen*-AEF-2Nal-THP—K(Ac)-N-3Pva-Sar-CONH2” here?
**A.** The oxidative folding yield was 22%.

**Q.** Which oxidative folding yield does the source give for “MeCO-r-Pen*-N-T-7MeW-K(Ac)-Pen*-AEF-2Nal-THP-E-N-3Pya-NMeK(PEG2PEG2gEC180H)-CONH2” here?
**A.** The oxidative folding yield was 11%.

**Q.** Which oxidative folding yield does the source give for “MeCO-k(PEG2PEG2gEC180H)-Pen*-N-T-7MeW-K(Ac)-Pen*-AEF-2Nal-THP-K(Ac)-N-3Pva-N(4AmBenzyl)Gly-CONH2” here?
**A.** Its oxidative folding yield is 26.8%.

**Q.** With “MeCO-Pen*-N-T-7MeW-K(Ac)-Pen*-AEF-2Nal-THP—K(Ac)-N— 3Pva-Sar-PEG2-PEG2-eK(C160H)-COOH” as the substance, how does the oxidative folding yield read?
**A.** The oxidative folding yield was 7%.

**Q.** With “MeCO-r-Pen*-N-T-7MeW-K(Ac)-Pen*-AEF-2Nal-THP—K(Ac)-N— 3Pva-N(PEG2PEG2gEC180H)Glv-CONH2” as the substance, how does the oxidative folding yield read?
**A.** The oxidative folding yield was 19.6%.

**Q.** Which oxidative folding yield does the source give for “MeCO-k(PEG2PEG2gEC180H)-Pen*-N-T-7MeW-K(Ac)-Pen*-AEF-2Nal-THP-K(Ac)-N-3Pva-Sar-CONH2” here?
**A.** Its oxidative folding yield is 28%.

**Q.** Which oxidative folding yield does the source give for “MeCO-k(PEG2PEG22EmXOH)-Pen*-N-T-7MeW-K(Ac)-Pen*-AEF-2Nal-THP-K(PEG2PEG2gEmXOH)-N-3Pva-Sar-CONH2” here?
**A.** Its oxidative folding yield is 13%.

**Q.** With “HOC18gEPEG2PEG2-r-Pen*-N-T-7MeW-K(Ac)-Pen*-AEF-2Nal-THP-K(PEG2PEG2gEC180H)-N-3Pya-Sar-CONH2” as the substance, how does the oxidative folding yield read?
**A.** The oxidative folding yield was 11.3%.

**Q.** With “MeCO-k(PEG2PEG2gE(c)C180H)-Pen*-N-T-7MeW-K(Ac)-Pen*-AEF-2Nal-THP—K(Ac)-N-3Pva-Sar-CONH2” as the substance, how does the oxidative folding yield read?
**A.** Its oxidative folding yield is 20% yield.

**Q.** With “MeCO-r-Pen*-N-T-7MeW-K(Ac)-Pen*-AEF(PEG2PEG2gEC180H)-2Nal-THP—K(Ac)-N-3Pva-Sar-CONH2” as the substance, how does the oxidative folding yield read?
**A.** Its oxidative folding yield is 10%.

**Q.** For “MeCO-k(PEG2PEG22EC160H)-Pen*-N-T-7MeW-K(Ac)-Pen*-AEF-2Nal-THP-K(gEC16)-N-3Pva-Sar-CONH2”, which oxidative folding yield is on record?
**A.** The oxidative folding yield was 13%.

**Q.** For “MeCO-Pen*-N-T-7MeW-K(Ac)-Pen*-AEF-2Nal-THP-K(PEG2PEG2gEC180H)-N-3Pva-Sar-CONH2”, which oxidative folding yield is on record?
**A.** Its oxidative folding yield is 24%.

**Q.** For “MeCO-k(PEG2PEG2SP6gEC180H)-Pen*-N-T-7MeW-K(Ac)-Pen*-AEF-2Nal-THP—K(Ac)-N-3Pva-Sar-CONH2”, which oxidative folding yield is on record?
**A.** The oxidative folding yield was 35%.

same assay, conditions: oxidative folding step, from Intermediate 2-1, TFA salt, counterion exchange to acetate

**Q.** Which oxidative folding yield does the source give for “MeCO-r-Pen*-N-T-7MeW-K(Ac)-Pen*-AEF-2Nal-THP-E-N-3Pya-Sar-K(PEG2PEG2gEC18OH)-CONH2” here?
**A.** The oxidative folding yield was 5% yield.
